The full ranking holds about 33,000 sequences; the median of “E-score (-0.5 to 0.5)” is about -0.016, and the highest 2% start at about 0.3. The list shows a part of the results.
These sequences were tested against T1, Yer184c (UniProt P39961) (assay: PBM E-score (8-mer binding enrichment) (E-score (-0.5 to 0.5)); higher = stronger / more preferred TF binding). Conditions: protein concentration: 100 nM; construct: GST-full length.
T1 sequence: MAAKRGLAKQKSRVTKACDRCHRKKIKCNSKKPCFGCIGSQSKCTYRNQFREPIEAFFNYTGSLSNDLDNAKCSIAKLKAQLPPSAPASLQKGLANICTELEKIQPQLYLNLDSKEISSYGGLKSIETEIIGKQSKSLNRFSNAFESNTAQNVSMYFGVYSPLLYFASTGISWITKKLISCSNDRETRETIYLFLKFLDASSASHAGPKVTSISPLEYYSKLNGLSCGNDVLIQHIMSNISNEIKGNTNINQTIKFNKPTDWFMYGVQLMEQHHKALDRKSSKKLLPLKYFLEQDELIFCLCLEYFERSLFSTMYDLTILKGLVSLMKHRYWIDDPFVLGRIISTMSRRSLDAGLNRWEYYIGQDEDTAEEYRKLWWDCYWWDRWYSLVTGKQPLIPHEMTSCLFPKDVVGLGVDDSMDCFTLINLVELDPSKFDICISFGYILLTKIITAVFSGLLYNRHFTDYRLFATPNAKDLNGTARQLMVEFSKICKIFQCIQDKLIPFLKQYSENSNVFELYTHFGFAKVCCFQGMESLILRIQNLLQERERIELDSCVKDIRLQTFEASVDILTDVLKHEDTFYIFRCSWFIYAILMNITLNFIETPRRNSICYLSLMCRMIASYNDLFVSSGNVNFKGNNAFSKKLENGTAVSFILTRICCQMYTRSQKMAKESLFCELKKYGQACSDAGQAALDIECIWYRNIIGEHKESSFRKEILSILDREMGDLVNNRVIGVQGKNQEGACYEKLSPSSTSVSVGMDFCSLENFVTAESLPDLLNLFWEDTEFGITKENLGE
Method in brief: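 The E-score, a modified Wilcoxon-Mann-Whitney statistic, was computed by the Universal PBM Analysis Suite for every ungapped eight-base word pooled with its reverse complement. Scans behind it were normalised with masliner after bound GST-tagged yeast transcription factors were detected with fluorescent anti-GST. The proteins, at about 100-200 nM, had been applied to universal all-10-mer Agilent arrays made double-stranded by primer extension.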

Sequence	PBM E-score
ATTCTGTC	-0.0829
ACATAGCT	-0.113
ACATGGCC	-0.0855
ACAACCTA	-0.00165
TTGACCAA	-0.0616
CGTAACAA	0.143
CGAAGGAG	0.0167
ACGAGTCG	-0.151
ATAAACTA	0.203
GAGAGACC	-0.155
ACGTCCGC	0.114
ACTCGAAA	0.148
TACATCTA	0.164
ACAACCGT	0.0402
CGACGTTA	0.175
ACTACGGC	0.0494
CAAGCGGC	0.258
GACGCGGC	0.0425
ACTTGACA	-0.0214
CTCTTTAC	-0.102
GTTGTCAA	-0.0418
GGAATACC	0.0389
AGAAAACC	0.0683
GCTATTAA	0.158
GCACATGA	-0.171

Sequence	PBM E-score
CCCGGTCA	-0.0298
TCACTTAA	0.0622
GTAATACA	0.118
ACCATTAG	-0.0751
AAGCCCCT	-0.247
ATATTGAC	-0.0324
AAGCGCTT	0.306
CCGTATAC	0.0361
CCGAGACA	0.0813
CATGGCCC	-0.132
ATCCGGTG	0.353
CGGTGCAC	-0.1
CTATAGCC	-0.202
ACTATTCA	0.0829
CTCCAGAC	-0.0743
GGGACAAA	-0.00844
CGGTTCCC	0.0223
TAGGTTAA	0.0756
CAACCGCC	-0.042
CTTATGTC	-0.135
TCCGTTAA	0.305
TGATAGCA	0.0336
CTGTCCGC	0.0717
AAATGATA	0.162
ATGTAAAT	0.0693

Sequence	PBM E-score
GACTTTCA	-0.0149
GACAACCC	-0.0862
AGCGGATG	-0.0323
ATACACGG	0.047
ATTCAGAA	0.0922
AGAGCTAC	-0.15
CGGCACTC	0.124
CCGAAGGA	0.158
CACGATCC	0.127
AGGGGCCC	-0.227
GCACAAGC	-0.033
CTAATTAG	-0.0123
GGGAATCA	0.0818
CAAAGCCG	0.271
TAAAGGCA	0.0318
ACAAAAGT	0.105
AAGGGACG	-0.26
CGAGTAGA	-0.111
ACAAAATC	0.0566
ACTTGATG	-0.0546
ACCTGCGT	-0.142
CCTTAAGG	-0.0623
CGCATACG	0.0649
ATCAGTCC	-0.362
GGGTTGAA	-0.0729

Sequence	PBM E-score
CGCTAGGA	-0.042
GAAGTAGC	-0.00548
AACCACAT	-0.0437
GATGGGGA	-0.22
GTGGCCAA	-0.156
GGCCTTTA	-0.0707
TAGAGTAA	0.0733
AGATCAAG	0.136
AAGGTTCG	-0.0331
GTTGGCAA	-0.00934
TATGTGAA	-0.0479
GCCTAACC	-0.232
CAAAGTCC	-0.0601
CCCCTTCG	-0.276
CAGCGCCG	0.208
GCACATAA	-0.0273
AACCTGCC	-0.129
CCAGGTAC	-0.108
CAGCAGAC	0.139
CGGAGAAA	0.255
CCGTGTCC	0.163
ACGTATCA	-0.0301
CCAGGTAA	-0.0658
AACTAATA	0.25
GCTAGGAA	0.0829

Some of the entries so far, as a markdown table:

| Sequence | PBM E-score |
| --- | --- |
| GGCCTTTA | -0.0707 |
| TAGAGTAA | 0.0733 |
| AGATCAAG | 0.136 |
| AAGGTTCG | -0.0331 |
| GTTGGCAA | -0.00934 |
| TATGTGAA | -0.0479 |
| GCCTAACC | -0.232 |

(list continues)

Sequence	PBM E-score
CCTACGCG	-0.163
AGTGCTCG	-0.101
CCAACAGA	-0.163
CACCTACC	-0.229
CAGAAAAA	0.131
AGCGGGGA	-0.158
CGGGTTTA	0.228
ACACCGCT	-0.231
CATTCTAG	-0.129
GGGCTAAA	-0.0747
ATCTCGAG	0.0414
ACACGTAC	-0.205
CAACGGTC	0.0501
AGAGGCGA	-0.246
AGAGGCAA	-0.0864
GGAGGCCA	-0.138
GAGCAATC	0.0694
ACCTTCTA	-0.0294
GCCCCATA	-0.275
GCTTGGAA	-0.0326
AGGTAATG	0.0549
AATTTAAA	0.241
CTCGTGAC	-0.0955
ACGACCAA	0.0102
ACACTTCG	-0.0091

Sequence	PBM E-score
CACAGAGG	-0.151
GGACCTAC	-0.148
CCTGGCCG	0.0828
AAATTTCT	0.223
CCTATGCA	-0.172
CATTCGGA	0.338
CCATCCAA	0.0304
CGGGGTAA	0.214
ACAATTTC	0.0292
ATCTGCCG	0.282
CCACACGC	-0.144
GACCACGC	-0.0179
TCTCGCCA	-0.135
CGTGCTAC	-0.172
ACCTGGTC	-0.0673
CGTTGTTC	-0.00041
CAAGTAAA	0.0872
CTGGTAGA	-0.0327
CTTAGAGC	0.0355
AGCTTCCA	0.00498
ACAGAGGT	-0.0473
GGGTGGTA	-0.0919
CGTTGAAC	-0.0122
AGCGATAA	0.0299
ACAGGCCT	-0.0761

Sequence	PBM E-score
CGTAACAC	0.0589
GCTTCCGA	0.306
CTCTGTAA	-0.00676
ATATGGTG	-0.0255
CCAACTTC	-0.0764
GACCAGTA	-0.139
ACCCCCAG	-0.227
GTGAATTA	0.118
CGGAATAC	0.353
ACACTCTA	0.0906
ATCGTACA	0.163
AGGTCTCA	-0.0573
CATCCTAG	-0.236
AGGAAGAG	0.00885
ACCCGTCT	-0.162
ACGGAGAG	-0.0167
TACTAAAA	0.149
TCCTCACA	0.0484
GAGAGTGA	-0.0128
AAATGTCA	0.0731
CACTCTTA	-0.0433
GACACCTC	-0.0931
GCGTGTCA	0.135
GCCCGGGC	0.297
ACTCCAGA	-0.0619

Sequence	PBM E-score
CTTGAAAC	0.218
CTTCGACA	0.0235
ACTAGTAG	-0.0313
AGAACGAT	0.116
ATGCGCAC	-0.0652
CAAACGAC	0.0292
AAAGCGTG	-0.0676
AGGGCGAA	-0.14
CCAGCCCA	-0.258
CCTGAGGC	-0.282
GGGAAACA	0.22
CCGAACGA	0.245
AGCCCGCG	0.136
ATTTTTTA	0.274
AATGTATG	0.0182
GATCGCCA	-0.202
TGTCGGAA	0.163
CATCCATG	-0.136
GACCGGAA	0.232
ACTAAATC	0.173
AAAGATGA	0.18
CAGTATAG	0.131
CACACGGC	0.205
CAATCACC	-0.0272
AAGATGAC	-0.0342

Sequence	PBM E-score
AGATTGAG	0.0421
GGAAGTGA	0.0956
CGCGCGCC	0.208
CAAAACGC	0.0742
CGTGTTTA	-0.0463
CGCGGACA	0.214
CGCTTTAC	-0.137
AACGGGGA	-0.0956
GCCAAGGA	-0.121
GCCTGCGA	-0.223
GCAATTGA	0.0871
TCATCCAA	0.0123
AATGAACT	0.222
CTGTTAGC	-0.0437
GCGGGAGA	-0.107
TGAGTGCA	-0.133
AAGAAGGA	-0.197
GAGTCAAC	-0.157
AAGGATAT	0.0287
AATTTTTA	0.217
AACACCCG	0.225
AATTAGGA	0.0518
CCCGCAAG	-0.298
ACACCGCA	0.0328
ATAAGTAC	-0.0231

Sequence	PBM E-score
ACAGAGGC	-0.255
CCAAGGCG	-0.0441
ATTAAGGG	-0.169
GACACCGC	-0.0713
CGTTTTTC	-0.00305
CCGCAGAC	-0.107
CTTCACCA	-0.191
ACACTCAG	-0.0821
AGGAAATA	0.249
TGTCAAAA	0.21
ACAGTGTC	-0.191
AATTGTAT	0.138
CACTTCCC	-0.0654
ATTTTGGA	0.148
AAAAAAGG	0.18
CTCTAGGA	-0.234
CTGAAATC	0.0356
GAAAATCA	0.172
CAGGACAA	0.219
CCGGCCGC	0.304
CCGTACGA	-0.0091
CCCACGTA	-0.255
AGTCATGC	-0.136
CCAATCAC	-0.167
TCTAACAA	0.0476

Sequence	PBM E-score
TCCCGGCA	0.256
CCACCCCC	-0.336
CTTGTATA	0.0185
CAAGAAAG	0.0559
AGGAACCA	0.096
AGTACTGC	-0.177
ATGTGCTG	0.14
GTCTGTGA	-0.098
AGCCCTGA	-0.113
AGGAATCA	0.078
AATTCTAT	0.0873
CCTTTGCG	-0.109
ACTGAATC	-0.0361
GAGTCGTA	-0.0554
GGCCCGTA	0.0235
GTTGTGTA	-0.0255
CGGCCACC	0.154
GCATCGAC	-0.0882
TAACCCCA	-0.345
CCAATGAC	-0.176
GATCGTTA	-0.154
CCAGGCGA	-0.22
ATCAGCTG	0.115
CTTCCGAA	0.39
CACCAGAA	-0.147

Sequence	PBM E-score
TCCTAAAA	0.0838
GATGACGA	-0.022
AGGACACA	0.165
AATTGCTG	0.0973
ATACCAAC	0.00336
ACACGGCT	0.171
CCCTTGCA	-0.372
GGAGACGA	0.159
GCCATGAA	-0.00087
CATACGCG	-0.0259
ATGCGGCC	0.109
GTCAGACA	-0.0984
ATATTTAG	0.202
GATCCGGA	0.395
ATAGCATC	-0.0575
ATACGGCG	0.203
AATTTCGC	0.146
CGCCAGAA	0.0364
CATTCCAA	-0.0772
TTAGGAAA	0.146
CTAGAAGA	0.103
AAGCTCCA	-0.17
ACCGGCCC	0.13
TGGGGCAA	-0.286
AGGAATAC	-0.0183

Sequence	PBM E-score
CGGGTATC	0.0139
GCGGTCGA	0.15
GGGTTATA	-0.298
ATACACAG	-0.219
CATAAAGC	-0.101
CATTAAGA	-0.0926
GGGCTCTA	-0.0148
ACATAAAG	0.197
AGCAGCCC	-0.222
TATGCAGA	-0.075
CGATACCG	-0.0503
AAGTAGGA	-0.0944
ACAGGTTC	-0.233
CCCATCGA	-0.0649
GTAAGTGA	0.141
CGATATGA	0.0643
ACTTGCTA	-0.0452
GGTCGGAA	0.225
AGGACGTA	-0.212
ATGCACAG	-0.216
AAAACAGG	-0.126
CAGTCAAC	-0.0922
CAGTTTTC	0.136
AGCCTGAG	-0.074
AATGTCAA	0.0179

Sequence	PBM E-score
AGACAACC	0.182
CATACTCC	0.00805
AGTTGCTG	-0.06
CGCATAAG	-0.0386
AAGATACG	0.16
GCTGAAAC	0.138
AATGCTGG	-0.0289
AGACTCGC	-0.14
ACGGGGCA	-0.23
GACAGCTA	-0.081
ATGAGTCG	-0.267
ATTCTGGG	-0.0625
CCCGCGGA	0.257
AAACCAAG	0.051
AATTGCTA	0.0206
CTCCTCCC	-0.151
ACCCCCGT	-0.281
CCTTACGC	-0.176
AATTACTA	0.198

Looked up above:
PBM E-score with ATTCTGGG is entered as -0.0625
PBM E-score with ACGGGGCA is entered as -0.23
PBM E-score with CGCATAAG is entered as -0.0386
PBM E-score with CTCCTCCC is entered as -0.151

Reference: the supplement of paper PMC3334620
